Measured values taken from US7192728B2, “Screening assays for agents that alter inhibitor of apoptosis (IAP) protein regulation of caspase activity” (The Burnham Institute, priority 1997, dated 2007).
Some results were stated once for a whole list of compounds, not compound by compound. At least one compound was matched to its structure with a doubt left. Where a SMILES comes first, the peptide text is derived from it. The star is where a group is joined. Cbz = O=C(OCc1ccccc1)*; CH2F = FC*

Tested on: pro-caspase-9
Assay: Cytochrome c-induced processing of pro-caspase-9 in 293 cytosolic extracts
Format: biochemical, human
Details: 10 μM cytochrome c, 1 mM dATP; 30° C., 30 min
Protocol: Cytochrome c induced processing of pro-caspase-9 was subsequently monitored by SDS-PAGE and autoradiography.
Pro-caspase-9 inhibition by Ac-DEVD-fmk, zVAD-fmk and XIAP was compared as follows. In vitro translated ^35S-labeled pro-caspase-9 was added to cytosolic extracts from 293 cells containing 10 μM cytochrome c and 1 mM dATP. Samples were incubated at 30° C. for 30 minutes in the presence of the indicated concentrations of inhibitors. Proteins were separated on SDS-PAGE gels, dried directly, and exposed to film.

## CC(C)[C@H](NC(=O)OCc1ccccc1)C(=O)N[C@@H](C)C(=O)N[C@@H](CC(=O)O)C(=O)CF [zVAD-fmk, N-benzyloxycarbonyl-Val-Ala-Asp fluoromethylketone, reference compound] (Cbz-Val-Ala-Asp-CH2F)
  concentration to completely abolish cytochrome c-mediated processing of pro-caspase-9: at least 5 μM
